According to patent US10786451B2, “Process for preparing a dry powder formulation comprising an anticholinergic, a corticosteroid and a beta-adrenergic” (CHIESI FARMACEUTICI S.P.A., priority 2015, dated 2020):

Assay: Uniformity of distribution of the active ingredients in the blend (12 samples, HPLC)
Assay type: physicochemical
Protocol: In the context of the present application the flow properties were tested by measuring the flow rate through an orifice according to the method described in the European Pharmacopeia (Eur. Ph.) 8.6, 8th Edition, which is incorporated herein by reference in its entirety. […] It is usually determined according to known methods, for instance by taking samples from different parts of the powder and testing the component by HPLC or other equivalent analytical methods. The uniformity of distribution of the active ingredients was evaluated by withdrawing 12 samples from different parts of the blend and evaluated by HPLC.

C[N+]1(C)CCC(OC(=O)C(O)(c2ccccc2)C2CCCC2)C1 (centres unmarked) [GB, Glycopyrronium bromide]
Uniformity of distribution (powder formulation of Example 2 (6 μg FF, 100 μg BDP, 12.5 μg GB per 10 mg carrier), mean value, RSD in next column): 100.8
Uniformity of distribution (powder formulation of Example 3 (6 μg FF, 100 μg BDP, 25 μg GB per 10 mg carrier)): 101.5
